Here are results for four substances from patent US8324152B2, “Composition for the treatment of atherosclerosis” (Institute National de la Sante et de la Recherche Medicale …, priority 2005, dated 2012).

This data set in a line: Total plasma cholesterol in apoE-/- mice after subcutaneous mini-osmotic pump delivery of peptide. It is filed as in vivo.
Where [1] appears, read: Example 1, 10 μg per day s.c. mini-osmotic pump for 14 days, killed at 19 weeks of age.
Where [2] appears, read: Example 2, 10 μg per day s.c. pump for 14 days, kept another 6 weeks, killed at 19 weeks of age.
[3] abbreviates: Example 2, s.c. pump for 14 days, kept another 10 weeks, killed at 23 weeks of age.

Regarding “FPDLGQEVALNANTKNQKIR (peptide derived from apolipoprotein B) [P240, Human apoB-100 derived peptide, amino acids 3586 to 3605]”, the “Total plasma cholesterol levels” value is, setting by setting: under setting [1], 4.95 ± 0.59 g/L; under setting [2], 4.81 ± 0.51 g/L; under setting [3], 6.64 ± 0.64 g/L.
Turning to “ISQAVHAAHAEINEAGR (peptide derived from ovalbumin) [Control: chicken ovalbumin (OVA) peptide, amino acids 323 to 339, reference compound]”, the “Total plasma cholesterol levels” value under setting [2] is 5.51 ± 0.78 g/L.
As to “KTTKQSFDLSVKAQYKKNKH (peptide derived from apolipoprotein B) [P210, Human apoB-100 derived peptide, amino acids 3136 to 3155]”, the “Total plasma cholesterol levels” value came out at 4.66 ± 0.45 g/L under setting [1], 4.94 ± 0.39 g/L under setting [2] and 5.40 ± 0.67 g/L under setting [3].
On to “MDA-P210: Malondialdehyde (MDA)-modified human apoB-100 derived peptide; native P210 modified by 0.5 mol/L MDA for 3 hours at 37° C. (KTTKQSFDLSVKAQYKKNKH)”, for which the “Total plasma cholesterol levels” value is 5.84 ± 0.61 g/L under setting [1], 5.49 ± 0.50 g/L under setting [2] and 4.67 ± 0.89 g/L under setting [3].
